Measured values taken from PubChem BioAssay AID222 (DTP/NCI, 2004).
The list does not hold the whole screen: it gathers tests that were run many times, whatever their T/C, doses with no T/C, and many T/C values between a quarter and a half above the control. Other doses and runs of a compound stand elsewhere. T/C is the treated group as % of the vehicle group. Some doses have a count of surviving animals in place of a T/C: the source files T/C as zero there, which appears to mark a toxic dose or a test without result, not a measured value. Some survivor counts are full or nearly so, which does not show that the dose was tolerated: survival well below the control is almost never listed, so the zero probably covers shortened survival too. Survivors were counted at the toxicity check, usually on the fifth day, unless a day is given; later deaths do not show. Schedule codes are those of the source, taken here to give the interval after Q, in days (D) or hours (H), and the number of doses after X. Some entries were tested several times; their values stand side by side, smallest first. Some schedules carry Z or #; the key to these is not given. Where survival is the endpoint, the PubChem record calls one and a half times the control and up active, and a quarter to a half above the control has no call in these data; cut-offs in other NCI protocols can differ. Some T/C values carry the count of animals alive at the toxicity check (mostly the fifth day); without a count, all were alive then. Additions like (4×) stand for listed records that agree.

Test system: C57BL/6 mice, intracerebral ependymoblastoma, median survival T/C
Test: NCI In Vivo Anticancer Drug Screen. Data for tumor model Ependymoblastoma (intracerebral) in C57BL/6 mice
Details: T/C endpoint: median survival time, higher T/C = longer survival
Protocol: The antitumor activity of compounds was measured in mice bearing transplantable tumors. Survival or tumor size were measured and the results are expressed as the measurement made in the treated group (T) divided by the measurement made in the vehicle treated control group (C). The tumor model used in this assay is Ependymoblastoma (intracerebral) in C57BL/6 mice

[1] = dose: 360.0 mg/kg/injection, schedule: Q01DX005 (ip), vehicle: saline with Tween-80
[2] = dose: 6.0 mg/kg/injection, schedule: Q01DX005 (ip), vehicle: saline
[3] = dose: 128.0 mg/kg/injection, schedule: Q01DX005 (ip), vehicle: Klucel (hydroxypropylcellulose) (HPC)

SMILES: COc1cccc2c1C(=O)c1c(O)c3c(c(O)c1C2=O)C[C@@](O)(C(=O)CO)C[C@@H]3OC1CC(N)C(O)C(C)O1 (some centres undefined)
- survivor count (dose: 0.5 mg/kg/injection, schedule: Q07DX003 (ip), vehicle: saline): 10 of 10
- T/C (dose: 1.0 mg/kg/injection, schedule: Q01DX009 (ip), vehicle: saline): 127 % of control
- survivor count (dose: 2.0 mg/kg/injection, schedule: Q01DX005 (oral), vehicle: saline): 6 of 10
- T/C (dose: 4.0 mg/kg/injection, schedule: Q01DX001 (ip), vehicle: saline): 96 [5 of 10 alive], 100, 109 [8 of 10 alive], 111 % of control
- survivor count (dose: 4.0 mg/kg/injection, schedule: Q07DX003 (ip), vehicle: saline): 10 of 10
- survivor count (dose: 4.0 mg/kg/injection, schedule: Q## X006 (ip), vehicle: saline): 9 of 10
- T/C (dose: 8.0 mg/kg/injection, schedule: Q01DX001 (ip), vehicle: saline): 100, 101, 101 [6 of 10 alive], 102 % of control [7 of 10 alive]
- survivor count (dose: 8.0 mg/kg/injection, schedule: Q07DX003 (ip), vehicle: saline): 4 of 10
- survivor count (dose: 8.0 mg/kg/injection, schedule: Q## X006 (ip), vehicle: saline): 5 of 10
- survivor count (dose: 16.0 mg/kg/injection, schedule: Q01DX001 (ip), vehicle: saline): 4 of 10
- survivor count (dose: 16.0 mg/kg/injection, schedule: Q07DX003 (ip), vehicle: saline): 8 of 10
- survivor count (dose: 32.0 mg/kg/injection, schedule: Q01DX001 (ip), vehicle: saline): 1 of 10
- survivor count (dose: 64.0 mg/kg/injection, schedule: Q01DX001 (ip), vehicle: saline): 2 of 10
- survivor count (dose: 128.0 mg/kg/injection, schedule: Q01DX001 (ip), vehicle: saline): 0 of 10

SMILES: Cc1nc(N)nc(N)c1-c1ccc(Cl)c(Cl)c1
- survivor count (dose: 2.0 mg/kg/injection, schedule: Q01DX005 (ip), vehicle: saline with Tween-80): 10 of 10
- survivor count (dose: 4.0 mg/kg/injection, schedule: Q01DX005 (ip), vehicle: saline with Tween-80): 10 of 10
- survivor count (dose: 4.0 mg/kg/injection, schedule: Q04DX003 (ip), vehicle: saline): 8 of 8
- survivor count (dose: 8.0 mg/kg/injection, schedule: Q01DX005 (ip), vehicle: saline with Tween-80): 8 of 10 and 10 of 10
- survivor count (dose: 10.0 mg/kg/injection, schedule: Q04DX003 (ip), vehicle: saline): 6 of 8
- survivor count (dose: 16.0 mg/kg/injection, schedule: Q01DX005 (ip), vehicle: saline with Tween-80): 9 of 10 and 10 of 10

SMILES: CNc1nc(N(C)C)nc(N(C)C)n1
- survivor count (dose: 12.5 mg/kg/injection, schedule: Q01DX005 (ip), vehicle: saline): 6 of 10
- survivor count (dose: 25.0 mg/kg/injection, schedule: Q01DX005 (ip), vehicle: saline): 8 of 10
- survivor count (dose: 50.0 mg/kg/injection, schedule: Q01DX005 (ip), vehicle: saline): 9 of 10
- survivor count (dose: 200.0 mg/kg/injection, schedule: Q01DX005 (ip), vehicle: saline): 7 of 10

SMILES: COc1ccc2c(c1OC(C)=O)-c1cc(O)cc3c1C(C2)N(C(=O)CN(CCCl)CCCl)CC3 (centres undefined)
- survivor count (dose: 100.0 mg/kg/injection, schedule: Q04DX003 (ip), vehicle: saline): 10 of 10

SMILES: O=P1(NCCCl)OCCC(OO)N1CCCl (centres undefined)
- survivor count (dose: 320.0 mg/kg/injection, schedule: Q01DX001 (ip), vehicle: Klucel (hydroxypropylcellulose) (HPC)): 3 of 6

SMILES: CCC(=O)NC1=C(N2CC2C)C(=O)C(NC(=O)CC)=C(N2CC2C)C1=O (centres undefined)
- survivor count (dose: 12.5 mg/kg/injection, schedule: Q01DX009 (ip), vehicle: Klucel (hydroxypropylcellulose) (HPC)): 6 of 6
- survivor count (dose: 25.0 mg/kg/injection, schedule: Q01DX009 (ip), vehicle: Klucel (hydroxypropylcellulose) (HPC)): 6 of 6
- survivor count (dose: 50.0 mg/kg/injection, schedule: Q01DX009 (ip), vehicle: Klucel (hydroxypropylcellulose) (HPC)): 6 of 6

SMILES: CC[n+]1c(-c2ccccc2)c2cc(N)ccc2c2ccc(N)cc21
- survivor count (dose: 24.0 mg/kg/injection, schedule: Q01DX005 (ip), vehicle: saline): 10 of 10
- survivor count (dose: 48.0 mg/kg/injection, schedule: Q01DX005 (ip), vehicle: saline): 6 of 10
- survivor count (dose: 96.0 mg/kg/injection, schedule: Q01DX005 (ip), vehicle: saline): 0 of 10

SMILES: O=S(=O)(O)O
- survivor count (dose: 128.0 mg/kg/injection, schedule: Q01DX005 (ip), vehicle: saline with Tween-80): 3 of 10

SMILES: O=C1NC(=O)C2(CCc3ccc(N(CCCl)CCCl)cc32)N1 (centres undefined)
- survivor count (dose: 50.0 mg/kg/injection, schedule: Q01DX005 (ip), vehicle: Klucel (hydroxypropylcellulose) (HPC)): 8 of 10
- survivor count (dose: 100.0 mg/kg/injection, schedule: Q01DX005 (ip), vehicle: Klucel (hydroxypropylcellulose) (HPC)): 10 of 10

SMILES: ClC1=C(Cl)C2(Cl)C3C(Cl)C(Cl)CC3C1(Cl)C2(Cl)Cl (centres undefined)
- survivor count (dose: 90.0 mg/kg/injection, schedule: Q01DX005 (ip), vehicle: saline with Tween-80): 1 of 10 and 4 of 10
- survivor count (dose: 180.0 mg/kg/injection, schedule: Q01DX005 (ip), vehicle: saline with Tween-80): 0 of 10 and 1 of 10
- survivor count [1]: 0 of 10
- survivor count (dose: 720.0 mg/kg/injection, schedule: Q01DX005 (ip), vehicle: saline with Tween-80): 0 of 10
- survivor count (dose: 1440.0 mg/kg/injection, schedule: Q01DX005 (ip), vehicle: saline with Tween-80): 0 of 10

SMILES: O=c1[nH]cc(F)c(=O)[nH]1
- survivor count (dose: 40.0 mg/kg/injection, schedule: Q01DX005 (ip), vehicle: saline): 6 of 6

SMILES: CCOC(=O)CC(SP(=S)(OC)OC)C(=O)OCC (centres undefined)
- survivor count [1]: 2 of 10 and 5 of 10
- survivor count (dose: 400.0 mg/kg/injection, schedule: Q01DX005 (ip), vehicle: suspension in saline): 5 of 10

SMILES: CCC1CC2CC(c3cc4c(cc3OC)N(C)C3C(O)(C(=O)OC)C(OC(C)=O)C5(CC)C=CCN6CCC43C65)c3[nH]c4ccccc4c3CCN(C1)C2 (centres undefined)
- survivor count (dose: 1.6 mg/kg/injection, schedule: Q01DX005 (ip), vehicle: saline): 6 of 6

SMILES: CCN(CC)c1ccc2cc3ccc(=[N+](CC)CC)cc-3oc2c1
- survivor count (dose: 16.0 mg/kg/injection, schedule: Q01DX005 (ip), vehicle: saline): 5 of 10
- survivor count (dose: 32.0 mg/kg/injection, schedule: Q01DX005 (ip), vehicle: saline): 0 of 10

SMILES: Nc1ncn(C2OC(CO)C(O)C2O)c(=O)n1 (centres undefined)
- T/C (dose: 0.75 mg/kg/injection, schedule: Q01DX005 (ip), vehicle: saline): 108 (2×), 114, 125 % of control
- T/C (dose: 1.5 mg/kg/injection, schedule: Q01DX005 (ip), vehicle: saline): 101, 115 (2×), 132 % of control [9 of 10 alive]
- T/C (dose: 3.0 mg/kg/injection, schedule: Q01DX005 (ip), vehicle: saline): 102, 106, 114, 126 % of control
- T/C [2]: 122 and 129 % of control
- survivor count [2]: 10 of 10

SMILES: Cc1c2cc[n+](C)cc2c(C)c2c1[nH]c1ccc(O)cc12
- survivor count (dose: 0.5 mg/kg/injection, schedule: Q01DX005 (ip), vehicle: saline): 10 of 10
- survivor count (dose: 1.0 mg/kg/injection, schedule: Q01DX005 (ip), vehicle: saline): 10 of 10

SMILES: O=C(N/N=C\c1cc(Br)cc(Br)c1O)N/N=C/c1cc(Br)cc(Br)c1O
- survivor count (dose: 512.0 mg/kg/injection, schedule: Q01DX005 (ip), vehicle: saline with Tween-80): 6 of 10

SMILES: COC1C(O)C(C)OC(OC2C(Oc3cccc4c(O)c5c(=O)oc6ccc(C)c7c(=O)oc(c34)c5c67)OC(C)C(O)C2O)C1O (centres undefined)
- T/C (dose: 4.0 mg/kg/injection, schedule: Q01DX005 (ip), vehicle: Klucel (hydroxypropylcellulose) (HPC)): 136 % of control
- T/C (dose: 32.0 mg/kg/injection, schedule: Q01DX005 (ip), vehicle: Klucel (hydroxypropylcellulose) (HPC)): 126 % of control [9 of 10 alive]
- T/C [3]: 134 % of control [8 of 10 alive]
- survivor count [3]: 1 of 10 and 4 of 10
- survivor count (dose: 256.0 mg/kg/injection, schedule: Q01DX005 (ip), vehicle: Klucel (hydroxypropylcellulose) (HPC)): 0 of 10 and 1 of 10
